# From the supplement of paper PMC9135407
# “And” between values parts separate entries of the source, which are not always exact repeats. Equal entries are not always repeated. Structures can show the parent of a compound that is named as a salt. ± gives the standard deviation of the averaged measurements. The list shows a part of the results. Baselines shift from plate to plate; read single values as rough.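 Culture-activated primary human stellate myofibroblasts, where regained lipid droplets signal inactivation. Value: share of Hoechst-counted cells above a per-plate Bodipy cutoff, in duplicate wells, with DMSO negative and nortriptyline positive controls on each plate. Hits: a control-normalized score above the plate's top-tenth-percentile nortriptyline wells, or one of a plate's three best wells. Final well concentrations are not given.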
# Test system: primary human hepatic stellate cells (donor 1)
# Experiment: percent Bodipy-positive cells; higher = more lipid droplet accumulation
# Conditions: 48 h
# [1] = library stock concentration: 1 mM
# [2] = library stock concentration: 3.33 mM
# [3] = library stock concentration: 10 mM
# [4] = library stock concentration: 6.3 mM
# [5] = library stock concentration: 80 uM
# [6] = library stock concentration: 400 uM
# [7] = library stock concentration: 2 mM
smiles,measurement,setting,value
CCCCCC=CCC=CCC=CCC=CCCCC(=O)SCC(O)CO (centres undefined) [Arachidonoyl-1-thio-Glycerol],percent Bodipy-positive cells,[1],7.56 ± 0.45%
OC[C@@H](O)[C@@H](O)[C@H](O)[C@H](O)CO [Mannitol],percent Bodipy-positive cells,library stock concentration: 11 mM,1.83 ± 0.98%
OC[C@@H](O)[C@@H](O)[C@H](O)[C@H](O)CO [D-Mannitol],percent Bodipy-positive cells,[2],4.67 ± 2.6%
same,percent Bodipy-positive cells,[3],15.8 ± 4.9%
C=CCc1ccc(O)c(OC)c1 [Eugenol],percent Bodipy-positive cells,[3],8.98 ± 3.8%
same,percent Bodipy-positive cells,library stock concentration: 12.2 mM,3.52 ± 2.2%
COc1cc2c(Nc3ccc(NC(=O)c4ccccc4)cc3)ncnc2cc1OCCCN1CCOCC1,percent Bodipy-positive cells,[2],97.8 ± 0.45%
same,percent Bodipy-positive cells,[3],99.017 ± 0.099%
O=C1OC(c2ccc(O)cc2)(c2ccc(O)cc2)c2ccccc21 [Phenolphthalein],percent Bodipy-positive cells,[4],2.89 ± 0.96%
same,percent Bodipy-positive cells,[3],11.4 ± 2.1%
COCCOc1nc(-c2ccc(Cl)c(Cl)c2)n(-c2ccc(NC(=O)CCl)cc2)n1 [MI-2 (MALT1 inhibitor)],percent Bodipy-positive cells,[2],100%
same,percent Bodipy-positive cells,[3],100%
COc1cc(C)c(Sc2cnc(NC(=O)c3ccc(CNC(C)C(C)C)cc3)s2)cc1C(=O)N1CCN(C(C)=O)CC1 (centres undefined),percent Bodipy-positive cells,[3],82 ± 4.9%
CC(=O)N[C@@H](Cc1c[nH]c2ccccc12)C(=O)O [Acetyltryptophan],percent Bodipy-positive cells,[3],36.4 ± 18%
Oc1ccc(C2CNCCc3c2cc(O)c(O)c3Cl)cc1 (centres undefined) [Fenoldopam hydrochloride],percent Bodipy-positive cells,[3],5.22 ± 4%
Oc1ccc(C2CNCCc3c2cc(O)c(O)c3Cl)cc1 (centres undefined),percent Bodipy-positive cells,[3],8.73 ± 1.9%
Oc1ccc(C2CNCCc3c2cc(O)c(O)c3Cl)cc1 (centres undefined) [Fenoldopam bromide],percent Bodipy-positive cells,[3],25.2 ± 12%
CC(C(=O)O)c1cccc(Oc2ccccc2)c1 (centres undefined) [Fenoprofen],percent Bodipy-positive cells,library stock concentration: 8.3 mM,8.83% and 16.4%
same,percent Bodipy-positive cells,[3],19.1 ± 4.6%
CC(C(=O)O)c1cccc(Oc2ccccc2)c1 (centres undefined) [Fenoprofen calcium salt dihydrate],percent Bodipy-positive cells,,8.16 ± 3.1%
CC(C(=O)O)c1cccc(Oc2ccccc2)c1 (centres undefined) [Fenoprofen Calcium],percent Bodipy-positive cells,[2],6.39 ± 0.35%
same,percent Bodipy-positive cells,[3],17.5 ± 9.7%
O=C(O)CN(CCN(CC(=O)O)CC(=O)O)CC(=O)O.[Na+].[Na+].[Na+] [Trisodium ethylenediamine tetracetate],percent Bodipy-positive cells,[3],12.7 ± 3%
CN(C)CCCNC(=O)[C@@H]1C[C@H](CN2CCOCC2)CN(Cc2ccc3ccccc3c2)C1,percent Bodipy-positive cells,[3],91.8 ± 0.83%
"O=P(O)(O)OC1C(O)C(OP(=O)(O)O)C(O)C(OP(=O)(O)O)C1O [D-myo-Inositol-1,3,5-triphosphate (sodium salt)]",percent Bodipy-positive cells,[1],6.02 ± 1.7%
CN1Cc2c(C(=O)OC(C)(C)C)ncn2-c2ccsc2C1=O,percent Bodipy-positive cells,[3],4.12 ± 1.2%
N#C/C(=C\c1ccc(O)c(O)c1)C(=O)Nc1ccccc1 [Tyrphostin AG 494],percent Bodipy-positive cells,[3],29.2 ± 6.7%
N#C/C(=C\c1ccc(O)c(O)c1)C(=O)Nc1ccccc1,percent Bodipy-positive cells,[3],5.25 ± 0.31%
CCCCCCCCCCCCCCCCC/C=C/C(=O)O [.DELTA.2-trans Eicosenoic Acid],percent Bodipy-positive cells,[1],9.46 ± 0.65%
O=C1NC(=O)C(c2ccccc2[N+](=O)[O-])=C1Nc1ccc(O)c(Cl)c1,percent Bodipy-positive cells,[2],12.8 ± 1.1%
CNc1cc2c(Nc3cccc(Br)c3)ncnc2cn1,percent Bodipy-positive cells,[2],12.9 ± 1.6%
same,percent Bodipy-positive cells,[3],12.9 ± 0.84%
CCCc1ncc(C[n+]2ccccc2C)c(N)n1 [Amprolium HCl],percent Bodipy-positive cells,[2],8.96 ± 3.4%
same,percent Bodipy-positive cells,[3],39 ± 2.4%
CCCc1ncc(C[n+]2ccccc2C)c(N)n1 [Amprolium],percent Bodipy-positive cells,[4],1.92 ± 0.9%
same,percent Bodipy-positive cells,[3],8.7 ± 0.29%
CCCc1ncc(C[n+]2ccccc2C)c(N)n1 [Amprolium hydrochloride],percent Bodipy-positive cells,,25.1 ± 5.1%
O=C1NC(=O)/C(=C/c2ccc3nccc(-c4ccncc4)c3c2)S1,percent Bodipy-positive cells,[5],12.6 ± 4.6%
same,percent Bodipy-positive cells,[6],13.5 ± 1.4%
same,percent Bodipy-positive cells,[7],8.81 ± 7.5%
same,percent Bodipy-positive cells,[2],3.55 ± 0.33%
same,percent Bodipy-positive cells,[3],14% and 7.69%
CC(CN1c2ccccc2Sc2ccccc21)N(C)C.Cl (centres undefined) [Promethazine hydrochloride],percent Bodipy-positive cells,[3],85.8 ± 2.1%
CN(C)C/C=C/C(=O)Nc1ccc(C(=O)Nc2cccc(Nc3ncc(Cl)c(-c4c[nH]c5ccccc45)n3)c2)cc1,percent Bodipy-positive cells,[5],83.4 ± 4.5%
same,percent Bodipy-positive cells,[6],88.8 ± 6.5%
same,percent Bodipy-positive cells,[7],99.48 ± 0.74%
same,percent Bodipy-positive cells,[3],87.51 ± 0.47%
O=C1NC(=O)C(c2cnc3ccccn23)=C1c1cn2c3c(cc(F)cc13)CN(C(=O)N1CCCCC1)CC2,percent Bodipy-positive cells,[6],55.5 ± 0.91%
same,percent Bodipy-positive cells,[7],51.7 ± 4.7%
C[C@@H](O)CN(CCN(C[C@@H](C)O)C[C@@H](C)O)C[C@@H](C)O,percent Bodipy-positive cells,[3],33.3 ± 4.8%
Cc1cn[nH]c1 [4-Methylpyrazole hydrochloride],percent Bodipy-positive cells,[3],31.1 ± 7%
Cc1cn[nH]c1 [Fomepizole hydrochloride],percent Bodipy-positive cells,library stock concentration: 16.9 mM,17 ± 8%
Cc1ccc(S(=O)(=O)c2ccc([N+](=O)[O-])o2)cc1,percent Bodipy-positive cells,[2],98.96 ± 0.63%
same,percent Bodipy-positive cells,[3],94.3 ± 2%
COc1cc2ncnc(Sc3nnc(C)s3)c2cc1OC,percent Bodipy-positive cells,[2],46.4 ± 1.2%
Nc1[nH]cnc2ncnc1-2 [Adenine],percent Bodipy-positive cells,[3],40.8 ± 0.66%
Nc1[nH]cnc2ncnc1-2 [Adenine HCl],percent Bodipy-positive cells,[2],11.2 ± 4.7%
same,percent Bodipy-positive cells,[3],19.6 ± 5.9%
CC(=O)Nc1cccc(-n2c(=O)n(C3CC3)c(=O)c3c(Nc4ccc(I)cc4F)n(C)c(=O)c(C)c32)c1,percent Bodipy-positive cells,[5],10.3 ± 4.2%
same,percent Bodipy-positive cells,[6],9.14 ± 4.2%
same,percent Bodipy-positive cells,[7],9.169 ± 0.016%
same,percent Bodipy-positive cells,[2],15 ± 12%
same,percent Bodipy-positive cells,[3],9.41% and 8.43%
C[C@@H](NCCCc1cccc(C(F)(F)F)c1)c1cccc2ccccc12 [Cinacalcet HCl],percent Bodipy-positive cells,[2],40.5 ± 17%
same,percent Bodipy-positive cells,[3],96.5 ± 1.5%
CC(=O)[C@@]1(O)CC[C@H]2[C@@H]3C=C(Cl)C4=CC(=O)[C@@H]5C[C@@H]5[C@]4(C)[C@H]3CC[C@@]21C [Cyproterone],percent Bodipy-positive cells,[3],47.9 ± 2.3%
CO[C@@H]1[C@@H](O[C@@H]2O[C@H](C)[C@@H](O[C@H]3C[C@@](C)(O)[C@@H](OC(=O)CC(C)C)[C@H](C)O3)[C@H](N(C)C)[C@H]2O)[C@@H](CC=O)C[C@@H](C)[C@@H](O)/C=C/C=C/C[C@@H](C)OC(=O)C[C@H]1O,percent Bodipy-positive cells,[3],18.7 ± 4%
O=C(c1cc2cc(O)ccc2[nH]1)c1cc2cc(O)ccc2[nH]1 [Flt-3 Inhibitor II],percent Bodipy-positive cells,[2],11 ± 1.1%
CC[N+](C)(C)c1cccc(O)c1 [Edrophonium chloride],percent Bodipy-positive cells,,21.7 ± 2.2%
same,percent Bodipy-positive cells,library stock concentration: 9.9 mM,10.6 ± 4.6%
same,percent Bodipy-positive cells,[3],56% and 37.7%
CO[C@@H](C(=O)N1Cc2[nH]nc(NC(=O)c3ccc(N4CCN(C)CC4)cc3)c2C1)c1ccccc1,percent Bodipy-positive cells,[3],89.9 ± 1.2%
NCCc1c[nH]cn1 [Histamine],percent Bodipy-positive cells,library stock concentration: 45 mM,15.6 ± 0.5%
NCCc1c[nH]cn1 [Histamine dihydrochloride],percent Bodipy-positive cells,library stock concentration: 10.9 mM,4.44 ± 1.7%
NCCc1c[nH]cn1 [Histamine 2HCl],percent Bodipy-positive cells,[2],13.1 ± 8.1%
same,percent Bodipy-positive cells,[3],27.7 ± 12%
CCCCCC(O)/C=C/C1C(O)CC(O)C1CCCCC(CC(=O)O)OC (stereo not drawn) [3-methoxy Prostaglandin F1.alpha.],percent Bodipy-positive cells,[1],18.6 ± 5.8%
CCCOc1cc(N)ccc1C(=O)OCCN(CC)CC [Propoxycaine hydrochloride],percent Bodipy-positive cells,,8.7 ± 6.2%
OC(Cn1cncn1)(Cn1cncn1)c1ccc(F)cc1F [Fluconazole],percent Bodipy-positive cells,[2],7.09 ± 3.8%

# A different layout for some results above:
smiles	measurement	setting	value
O=P(O)(O)OC1C(O)C(OP(=O)(O)O)C(O)C(OP(=O)(O)O)C1O [D-myo-Inositol-1,3,5-triphosphate (sodium salt)]	percent Bodipy-positive cells	[1]	6.02 ± 1.7%
CN1Cc2c(C(=O)OC(C)(C)C)ncn2-c2ccsc2C1=O	percent Bodipy-positive cells	[3]	4.12 ± 1.2%
N#C/C(=C\c1ccc(O)c(O)c1)C(=O)Nc1ccccc1 [Tyrphostin AG 494]	percent Bodipy-positive cells	[3]	29.2 ± 6.7%
N#C/C(=C\c1ccc(O)c(O)c1)C(=O)Nc1ccccc1	percent Bodipy-positive cells	[3]	5.25 ± 0.31%
CCCCCCCCCCCCCCCCC/C=C/C(=O)O [.DELTA.2-trans Eicosenoic Acid]	percent Bodipy-positive cells	[1]	9.46 ± 0.65%
O=C1NC(=O)C(c2ccccc2[N+](=O)[O-])=C1Nc1ccc(O)c(Cl)c1	percent Bodipy-positive cells	[2]	12.8 ± 1.1%
CNc1cc2c(Nc3cccc(Br)c3)ncnc2cn1	percent Bodipy-positive cells	[2]	12.9 ± 1.6%
same	percent Bodipy-positive cells	[3]	12.9 ± 0.84%
CCCc1ncc(C[n+]2ccccc2C)c(N)n1 [Amprolium HCl]	percent Bodipy-positive cells	[2]	8.96 ± 3.4%
same	percent Bodipy-positive cells	[3]	39 ± 2.4%
CCCc1ncc(C[n+]2ccccc2C)c(N)n1 [Amprolium]	percent Bodipy-positive cells	[4]	1.92 ± 0.9%
same	percent Bodipy-positive cells	[3]	8.7 ± 0.29%
CCCc1ncc(C[n+]2ccccc2C)c(N)n1 [Amprolium hydrochloride]	percent Bodipy-positive cells		25.1 ± 5.1%
O=C1NC(=O)/C(=C/c2ccc3nccc(-c4ccncc4)c3c2)S1	percent Bodipy-positive cells	[5]	12.6 ± 4.6%
same	percent Bodipy-positive cells	[6]	13.5 ± 1.4%
same	percent Bodipy-positive cells	[7]	8.81 ± 7.5%
same	percent Bodipy-positive cells	[2]	3.55 ± 0.33%
same	percent Bodipy-positive cells	[3]	14% and 7.69%
CC(CN1c2ccccc2Sc2ccccc21)N(C)C.Cl (centres undefined) [Promethazine hydrochloride]	percent Bodipy-positive cells	[3]	85.8 ± 2.1%
CN(C)C/C=C/C(=O)Nc1ccc(C(=O)Nc2cccc(Nc3ncc(Cl)c(-c4c[nH]c5ccccc45)n3)c2)cc1	percent Bodipy-positive cells	[5]	83.4 ± 4.5%
same	percent Bodipy-positive cells	[6]	88.8 ± 6.5%
same	percent Bodipy-positive cells	[7]	99.48 ± 0.74%
same	percent Bodipy-positive cells	[3]	87.51 ± 0.47%

# Some of the entries above in a different format.
smiles | measurement | setting | value
COCCOc1nc(-c2ccc(Cl)c(Cl)c2)n(-c2ccc(NC(=O)CCl)cc2)n1 [MI-2 (MALT1 inhibitor)] | percent Bodipy-positive cells | [2] | 100%
O=P(O)(O)OC1C(O)C(OP(=O)(O)O)C(O)C(OP(=O)(O)O)C1O [D-myo-Inositol-1,3,5-triphosphate (sodium salt)] | percent Bodipy-positive cells | [1] | 6.02 ± 1.7%
